Results reported in publication PMC2664388 (Pharmaceutical research, 2008).

Columns and labels:
[1] = Corneal permeation, side-bi-side diffusion apparatus; type: in vitro ADME, New Zealand albino rabbits; conditions: 0.5 μCi/mL, 3h experiment
[2] = Permeation across sclera/choroid/RPE, Valia-Chein side-bi-side cells; conditions: 0.5 μCi/mL

For `CN1C(=O)CN=C(c2ccccc2)c2cc(Cl)ccc21` [[^3H]diazepam], the “Mean percent cumulative amount transported per hour across the cornea” value [1] was 1.62±0.04 percent per hour and the “Mean percent cumulative amount transported per hour across the sclera/choroid/RPE” value [2] was 0.08±0.02 percent per hour.
